Results: US20190192485A1, “DOSAGE REGIMEN FOR THE TREATMENT OF ENDOMETRIOSIS” (MEREO BIOPHARMA 2 LIMITED, priority 2016, published 2019)
Like-named read-outs stand apart in the source and are kept apart here.

Tests used:
aromatase [1] = biological target: T1, aromatase (Homo sapiens, UniProt P11511); assay: Low dose study in obese men with low testosterone, with PK/PD analyses of aromatase inhibition; format: in vivo; conditions: plasma concentration, read-out: average estimated IC50 for aromatase inhibition (converted)
T1 construct: high levels of aromatase in the adipose tissue; from tissue; host or cells: in vivo, human subjects (aromatase of adipose tissue)
T1 sequence (P11511 1-503): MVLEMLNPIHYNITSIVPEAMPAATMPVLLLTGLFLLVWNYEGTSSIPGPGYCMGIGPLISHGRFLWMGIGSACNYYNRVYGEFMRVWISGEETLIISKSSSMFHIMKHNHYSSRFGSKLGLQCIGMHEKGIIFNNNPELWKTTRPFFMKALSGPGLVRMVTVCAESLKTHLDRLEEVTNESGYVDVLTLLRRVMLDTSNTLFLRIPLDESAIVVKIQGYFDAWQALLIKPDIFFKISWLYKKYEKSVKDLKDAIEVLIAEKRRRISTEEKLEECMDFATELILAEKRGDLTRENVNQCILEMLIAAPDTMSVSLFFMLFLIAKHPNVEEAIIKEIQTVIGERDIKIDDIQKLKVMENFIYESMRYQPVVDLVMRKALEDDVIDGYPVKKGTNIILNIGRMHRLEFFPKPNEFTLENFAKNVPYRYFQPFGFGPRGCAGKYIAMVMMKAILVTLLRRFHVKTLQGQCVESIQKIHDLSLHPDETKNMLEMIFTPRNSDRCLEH
Method: Obese men with low testosterone levels (less than 300 ng/ml) due to the activity of the high levels of aromatase in the adipose tissue were given doses of CGP47645 starting as low as 0.003 mg and then titrated up. By inhibiting the aromatase enzyme, CGP47645 led to an increase in circulating levels by reducing the conversion of testosterone to estradiol. This study confirmed that doses of CGP47645 between 0.003 and 0.01 mg are biologically active in inhibition of aromatisation pathway as evidenced in FIG. 1.

aromatase [2] = biological target: T1, aromatase; conditions: microsomal fraction of human placenta; read-out: IC50 for aromatase inhibition; cited from earlier work

N#Cc1ccc(C(F)(c2ccc(C#N)cc2)n2cncn2)cc1 [CGP47645, 4,4′-[fluoro-(1-H-1,2,4-triazol-1-yl)methylene]bisbenzonitrile]
IC50 (aromatase [1]): 0.0989 nM | IC50 (aromatase [2]): ~6.2 nM
